Data published in PubChem BioAssay AID2685 (National Center for Advancing Translational Sciences (NCATS), 2010).
Some of the results follow. Further columns of the screen follow, without active or inactive calls. Compounds called inactive in the main read-out are mostly missing here. The note in brackets gives the kind of curve behind each potency; many fits are weak.

Assay: qHTS Assay for Lipid Storage Modulators in Drosophila S3 Cells;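 for cell number change: cells counted by Cell Tracker Red CMTPX staining in the red channel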
Conditions: BODIPY lipid droplet fluorescence, 18-24 h; for cell number change: measured here: cell count max response, cells fed with added oleic acid
Method in brief: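 Laser-scanning cytometry quantifies lipid droplet accumulation (500–530 nm total intensity; droplet/cell object ratio) in oleic acid-fed (400 uM added) Drosophila S3 cells treated with a concentration series. 20 uM Triacsin C defined 100% inhibition.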

[1] = measured here: lipid fluorescence (Fed channel) AC50, cells fed with added oleic acid
[2] = measured here: cell number channel AC50, cells fed with added oleic acid

| SMILES | cell number change | AC50 [1] | AC50 [2] |
| --- | --- | --- | --- |
| CC1CC(C)CN(c2cc3c(cc2[N+](=O)[O-])C(=O)N(c2ccccc2)C3=O)C1 (stereo unspecified) | -26.6% | 23.1 µM [falling, single point] |  |
| CCn1cnc2c1c(=O)n(CC(=O)NCC(F)(F)F)c(=O)n2Cc1ccccc1 | -16.8% | 4.11 µM [rising, single point] | 6.51 µM [rising, single point] |
| CCc1ccccc1N(CC(=O)N1CCCCC1)S(=O)(=O)c1ccccc1 | 11.3% |  |  |
| CCOC(=O)c1c(CN(C)C)n(-c2ccc(C)cc2)c2cc(Br)c(O)cc12 | 1.5% | 16.4 µM [rising, partial curve] |  |
| COc1ccccc1-c1cc(C(=O)Nc2cccnc2)no1 | -36.3% | 20.6 µM [falling, single point] | 20.6 µM [falling, single point] |
| CC(C)CCC(CC(C)O)c1n[nH]c(=S)n1-c1ccccc1 (stereo unspecified) | -0.171% | 1.16 µM [falling, single point] | 0.82 µM [falling, full curve] |
| S=C(NCc1cccs1)Nc1ccc(Cl)cc1 | -22.1% | 23.1 µM [falling, partial curve, poor fit] |  |
| CN1/C(=C/C(=O)C2CC2)C(C)(C)c2ccccc21 | -21.6% | 0.00731 µM [falling, full curve, poor fit] |  |
| CC(=O)NCCc1ccc(C(=O)Cn2cnc3ccccc3c2=O)cc1 | 10.5% | 35.5 µM [falling, partial curve, poor fit] |  |
| COC(=O)c1ccc(N2CCN(C)CC2)c(NC(=O)c2cccs2)c1 | 20.5% | 6.51 µM [rising, single point] |  |
| Nn1c(Cc2ccc(Br)cc2)n[nH]c1=S | -24.5% |  | 3.66 µM [falling, single point] |
| C=CCC(NCc1ccccc1)c1ccc(OC)cc1 (stereo unspecified) | -5.26% |  |  |
| FC(F)C(F)(F)C1=CC(c2ccccc2)=NCCN1 | -0.281% |  |  |
| COc1ccc(CCNc2ncnc3sc(C)cc23)cc1OC |  | 2.06 µM [falling, full curve] |  |
| CN1C=CC(=C2C(=O)c3ccccc3C2=O)C=C1 | 12.2% | 7.31 µM [falling, partial curve, poor fit] |  |
| COc1cccc(=O)c2c(C)n(CC(=O)c3ccccc3)c(C)c12 | -6.57% | 0.366 µM [falling, full curve, poor fit] |  |
| CCNC(=O)C1(c2ccccc2)CCCC1 | 6.11% | 0.092 µM [falling, full curve] |  |
| O=C(CSc1ccc(Br)cc1)NC1CCS(=O)(=O)C1 (stereo unspecified) | -9.08% |  |  |
| CN(C)C(=O)COC(=O)/C=C/c1ccccc1[N+](=O)[O-] |  | 0.651 µM [falling, single point] | 0.116 µM [falling, full curve, poor fit] |

| SMILES | cell number change | AC50 [1] | AC50 [2] |
| --- | --- | --- | --- |
| O=C(CSc1nnc(-c2cnccn2)n1Cc1ccco1)c1ccccc1 | 21.3% | 0.00461 µM [falling, full curve, poor fit] |  |
| COc1ccc(C)cc1S(=O)(=O)Nc1cc2c3c(c1)CC(=O)N3CCC2 | 79.1% |  | 0.291 µM [rising, full curve] |
| Cc1ccc(O)c(C(CC(=O)NCc2cccnc2)c2ccccc2)c1 (stereo unspecified) | 39.9% | 6.51 µM [falling, single point] | 0.731 µM [rising, full curve] |
| CCCCN(C(=O)NC(=O)C1=C(N2CCOCC2)/C(=C/c2ccccc2)CC1)S(C)(=O)=O | -27% | 0.92 µM [falling, full curve, poor fit] |  |
| CCOc1ccc(N2CC(C(=O)Nc3cccc(C(=O)NC4CC4)c3)CC2=O)cc1 (stereo unspecified) | -28.1% |  | 0.0058 µM [falling, full curve, poor fit] |
| CCCc1cc(C(=O)N2CCCC(C(=O)c3ccc(Cl)cc3)C2)n(C)n1 (stereo unspecified) | -19.8% | 2.31 µM [falling, full curve] |  |
| CCCCc1nc(C(N)=O)c2[nH]c(=O)n(-c3ccc(OC)cc3OC)c2n1 | -44.8% |  | 29.1 µM [falling, single point] |
| Cc1cccn2c(=O)c(/C=C(\C#N)S(=O)(=O)c3ccccc3)c(N3CCC(C(N)=O)CC3)nc12 | 6.43% | 7.31 µM [falling, partial curve, poor fit] |  |
| Cc1cccc(N2C(=O)C(O)=C(C(=O)c3cccs3)C2c2ccc(Cl)cc2)n1 (stereo unspecified) | 8.77% | 29.1 µM [rising, single point] |  |
| COc1ccc(CCNc2oc(COc3ccccc3)nc2C#N)cc1 | 4.63% | 0.92 µM [rising, partial curve, poor fit] |  |
| Cc1ccc(C(=O)NCC(=O)OCC(=O)NCCc2ccccc2)s1 | -4.4% | 29.1 µM [rising, single point] |  |
| O=C(Nc1ccn(Cc2c(F)c(F)cc(F)c2F)n1)c1ccc(COc2ccccc2Cl)cc1 | -22.6% | 29.1 µM [falling, single point] |  |
| CCOc1ccc(CN(C)C(=O)c2cccnc2SC)cc1OC | -4.88% |  |  |
| CCc1nc(SCC(=O)N2CCCC2)c2c(=O)n(C)c(=O)n(C)c2n1 | -33.1% | 5.17 µM [falling, partial curve] | 20.6 µM [falling, single point] |
| CC(C)N1CCc2c(sc(NC(=O)CCS(=O)(=O)c3ccccc3)c2C#N)C1 | -35.6% | 29.1 µM [falling, single point] | 32.6 µM [falling, single point] |
| CC(=O)Nc1ccc(S(=O)(=O)N2CCN(c3ccc(C)c(Cl)c3)CC2)cc1 | -49.2% | 8.2 µM [falling, partial curve] | 9.2 µM [falling, partial curve] |
| CCOC(=O)c1cnc2ccc(OCC)cc2c1NCc1cccnc1 | 48.9% | 8.2 µM [rising, partial curve] | 1.64 µM [rising, partial curve] |
| CC(=O)N1CCc2cc(S(=O)(=O)CCC(=O)NCc3ccco3)ccc21 | 28% | 4.11 µM [rising, full curve, poor fit] |  |

Part of the list above in order of formula weight, descending.

| SMILES | cell number change | AC50 [1] | AC50 [2] |
| --- | --- | --- | --- |
| O=C(Nc1ccn(Cc2c(F)c(F)cc(F)c2F)n1)c1ccc(COc2ccccc2Cl)cc1 | -22.6% | 29.1 µM [falling, single point] |  |
| COc1ccc(CCNc2oc(COc3ccccc3)nc2C#N)cc1 | 4.63% | 0.92 µM [rising, partial curve, poor fit] |  |
| C=CCC(NCc1ccccc1)c1ccc(OC)cc1 (stereo unspecified) | -5.26% |  |  |
